Laboratory results reported in paper PMC6179184, “Interaction of the Warsaw breakage syndrome DNA helicase DDX11 with the replication fork-protection factor Timeless promotes sister chromatid cohesion” (PLoS Genetics, 2018).
Substitutions are numbered along the chain they refer to. These are yes or no findings as the source states them, for the method shown. In cells and extracts the contact can be indirect. Some entries that bind do so weakly or less than the wild type. Sequences can lack the tags named with a protein.

Protein sequences, listed by entry. Tags and fused reporters are not part of them.
UniProt Q9UNS1: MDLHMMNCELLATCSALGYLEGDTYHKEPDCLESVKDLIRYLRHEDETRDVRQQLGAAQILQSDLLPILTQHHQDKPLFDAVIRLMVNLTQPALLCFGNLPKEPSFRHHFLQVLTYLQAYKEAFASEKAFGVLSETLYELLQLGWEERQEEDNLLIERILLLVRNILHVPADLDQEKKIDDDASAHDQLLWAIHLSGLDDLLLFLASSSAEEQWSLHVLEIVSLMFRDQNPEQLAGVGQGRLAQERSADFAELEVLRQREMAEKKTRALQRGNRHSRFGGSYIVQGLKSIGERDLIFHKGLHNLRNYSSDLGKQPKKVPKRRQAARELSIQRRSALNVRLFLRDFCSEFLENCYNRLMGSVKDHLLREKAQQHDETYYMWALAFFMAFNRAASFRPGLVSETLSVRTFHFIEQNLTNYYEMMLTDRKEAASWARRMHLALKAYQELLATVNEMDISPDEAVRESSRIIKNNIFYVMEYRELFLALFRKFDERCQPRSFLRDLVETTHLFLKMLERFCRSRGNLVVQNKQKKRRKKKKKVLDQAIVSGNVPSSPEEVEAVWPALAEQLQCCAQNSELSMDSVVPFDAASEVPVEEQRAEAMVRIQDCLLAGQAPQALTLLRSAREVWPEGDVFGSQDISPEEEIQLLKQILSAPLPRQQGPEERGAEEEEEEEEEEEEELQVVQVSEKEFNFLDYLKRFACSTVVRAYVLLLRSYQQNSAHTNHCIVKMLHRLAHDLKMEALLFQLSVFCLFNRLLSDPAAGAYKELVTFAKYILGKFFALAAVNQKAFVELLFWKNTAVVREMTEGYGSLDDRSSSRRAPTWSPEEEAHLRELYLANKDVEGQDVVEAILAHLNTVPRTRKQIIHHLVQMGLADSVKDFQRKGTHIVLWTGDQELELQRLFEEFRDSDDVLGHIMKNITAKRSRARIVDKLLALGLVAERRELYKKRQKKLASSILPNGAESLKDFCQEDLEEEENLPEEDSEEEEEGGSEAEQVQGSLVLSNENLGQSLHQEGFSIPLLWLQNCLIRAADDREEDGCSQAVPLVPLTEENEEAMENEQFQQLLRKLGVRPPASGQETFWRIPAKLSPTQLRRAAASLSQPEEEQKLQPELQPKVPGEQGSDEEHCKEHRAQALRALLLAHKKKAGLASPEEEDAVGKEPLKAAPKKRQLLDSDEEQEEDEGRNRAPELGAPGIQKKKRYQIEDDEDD

Assays:
Assay in all cases: co-IP; whole cell extracts of HEK 293T cells transiently expressing DDX11-3xFlag (wild type or mutants), anti-Flag M2 agarose beads, 50 mM Tris-HCl pH 8.0, 150 mM NaCl, 0.25% Triton X-100, 10% glycerol, 2 hr at 4 C, elution with Flag peptide; Western blot of endogenous partners
[1] = target: T1, DDX11-3xFlag KAE mutant (human) (UniProt Q96FC9)
T1 sequence: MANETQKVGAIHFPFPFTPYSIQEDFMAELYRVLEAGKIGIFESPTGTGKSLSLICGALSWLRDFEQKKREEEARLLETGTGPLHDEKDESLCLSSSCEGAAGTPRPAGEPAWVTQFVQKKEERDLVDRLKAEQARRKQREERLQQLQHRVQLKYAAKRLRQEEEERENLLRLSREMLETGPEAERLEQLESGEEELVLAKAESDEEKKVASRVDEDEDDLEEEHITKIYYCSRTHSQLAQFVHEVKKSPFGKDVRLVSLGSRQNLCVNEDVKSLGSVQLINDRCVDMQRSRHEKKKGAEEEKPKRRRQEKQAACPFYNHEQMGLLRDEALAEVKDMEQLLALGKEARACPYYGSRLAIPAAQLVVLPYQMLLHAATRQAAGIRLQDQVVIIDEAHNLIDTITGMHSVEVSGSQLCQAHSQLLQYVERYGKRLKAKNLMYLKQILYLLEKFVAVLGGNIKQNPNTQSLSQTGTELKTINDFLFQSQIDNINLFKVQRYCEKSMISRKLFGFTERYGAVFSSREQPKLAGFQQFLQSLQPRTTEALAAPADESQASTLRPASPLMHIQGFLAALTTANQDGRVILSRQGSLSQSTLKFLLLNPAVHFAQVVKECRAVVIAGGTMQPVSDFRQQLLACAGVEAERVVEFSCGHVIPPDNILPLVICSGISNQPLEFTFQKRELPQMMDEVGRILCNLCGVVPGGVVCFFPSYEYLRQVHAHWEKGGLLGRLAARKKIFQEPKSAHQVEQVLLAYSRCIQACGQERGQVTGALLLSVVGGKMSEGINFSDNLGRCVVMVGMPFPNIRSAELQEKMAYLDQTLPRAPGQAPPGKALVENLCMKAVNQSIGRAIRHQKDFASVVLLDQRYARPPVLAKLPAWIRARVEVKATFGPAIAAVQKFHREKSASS

[2] = target: T2, DDX11-3xFlag KAK mutant (human) (UniProt Q96FC9)
T2 sequence: T1 sequence with E203K

[3] = target: T3, DDX11-3xFlag Q23A mutant (human) (UniProt Q96FC9)
T3 sequence: T1 sequence with Q23A, K201E, A202Y

Measured: binding

endogenous Timeless (HEK 293T) (from UniProt Q9UNS1 1-1208)
binds: [1] | [2] | [3]
